Reference: article PMC11252441
No constants are given. Whether binding was seen depends on the method and setting. In cells and extracts the contact can be indirect. A yes stands for co-enrichment or nearness to the bait. Other partners may have been found.

Sequences of proteins named here, by UniProt entry; tags and fusion partners are left off. Residues count along the entry.
UniProt P20491, residues 19-86: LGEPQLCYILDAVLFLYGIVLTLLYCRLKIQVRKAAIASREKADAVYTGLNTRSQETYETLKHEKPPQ

Biological target: FcεR1γ-FLAG (mouse) (UniProt P20491)
Assay: affinity purification with mass spectrometry; anti-FLAG antibodies and Protein A/G magnetic beads on lysate of GFP+ RAW 264.7 cells lentivirally expressing FcεR1γ-FLAG (empty virus as control); lysis 50 mM Tris-HCl pH 7.4, 150 mM NaCl, 1% Triton X-100, 5 mM EDTA; wash with 500 mM NaCl, 0.1% Triton X-100; 4 °C; Orbitrap Exploris 480, MaxQuant LFQ

binding: binds
B1: IPO4 (protein, UniProt Q8VI75 1-1082)
chain: MEPAGLEQILKELLLPDTERIRRATEQLQTILRDPAALPALFDLLATATDSQIRQFAAVLTRRRLNNRWRRLAPEQRESLKSLVLTALQKETVHSVSVSLAQLSATIFRKEGLQGWPQFMNLLQHSTHSSHSPEKEVGLLLLSVVVSSQPEAFHAHQHELLQLLNETLSDVSFPGVLFYSLRTLTAIARYVRPDDVSLARMLVPKVVTALRTLIPLDEVKACEALEALDEMLETELPIINPHLSEVLTFCLEVAKNVALGEPLRVRVLCCLTFLVKVKSKALLKNRLVPPLLHALFPLMAAEPPMGQLDPEDQDSDDDDLEIGLMGETPKHFAVQVVDMLALHLPPEKLCPHVMPMLEEALRSEDPYQRKAGFLVLAVLSDGAGDHIRQRLLYPLLQIVCKGLDDPSQIVRNAALFALGQFSENLQPHISSYSEEVMPLLLSYLKSVPMGNTHHLAKACYALENFVENLGPKVQPYLPELMECMLQPLKNPSKARTKELAVSAIGAIATAAQDSLLPYFPTIMDLLREFLLTGHEDFHLVQIQSLETLGVLARALGESMKPLAEECCQLGLGLCIHIDDPDVRRCTYSLFAALSGLMGEGLGPYLPQITTLMLLSLRSTEGIVPQYDGISSFLLFDDDSEAEEEEELMDEDMEEEGDDSEISGYSVENAFFDEKEDTCTALGEISMNTCVAFLPFMDATFDEVYKLLECPHMNVRKSAYEALGQFCCALHKASQRSSSDPSSSPVLQTSLARVMPAYMQAVKVERERPVVMAVLESLTGVLRTCGSLALQPPGRLSELCNVLKAVLQKKTACQDAEEDDDEDDDQAEYDAMLLEHAGEAIPVLAATAGGHAFAPFFATFLPLLLCKTKQSCTVAEKSFAVGTLAESIQGLGTASAQFVSRLFPVLLNNAREADPEVRSNAIFGLGVLAEHGGCPAQDHFPKLLGLLLPLLARERHDRVRDNICGALARVLMASPVGKTEPQVLATLLRALPLKEDMEEWLTIGHLFSFLHQNNPEQVVDVASELLRICSLILPDNRIPPDTKAALLLLLTFLAKQHTDSFHTALGSLPNDKAQELQAMMGLT
